Most values lie at the floor of the assay. Slopes are relative: functional sequences can read slightly below zero.

For the data set, the system named is Saccharomyces cerevisiae PS128 hsf1 delta, HSF1(1-493) fusion. Nature of the data set: growth estimate (transactivation domain function in HSF1 fusion, heat-shock survival) (a.u. (slope of normalised read count over time)); higher = stronger growth at 37°C, i.e. more transactivation activity. As to conditions: library: random library. The method, then: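 Random 60-nt DNA library encoding peptides of up to 20 aa, fused to the C-terminus of yeast HSF1 residues 1-493 (C-terminal TAD deleted) and expressed from the native HSF1 promoter on a CEN plasmid in hsf1-deleted S. cerevisiae PS128. Cells were selected at 37°C on -trp 5-FOA plates for 0, 2, 4, 6 and 8 days and amplicons were sequenced. Growth estimate is the slope of a robust linear fit of total-sum-normalised read counts (normalised to the first time point) over time, using at least 2 replicates. Sequences are classed functional (TAD activity) above a threshold of -0.13, set from stop-codon control sequences.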
Take RAFGLGSRSSLYVALRWEVA: the growth estimate was less than -0.25. With YRSQCVVRILTECLAQPRRL the figure was less than -0.25; with ILQRTVGGSEVFRVRRGTTA, less than -0.25; with HSRYRV, less than -0.25. With PLGLLDKANSCS the figure was less than -0.25; with ANSMKYRFIS, less than -0.25.

As to QGVYLGHNRNSVLTP, the growth estimate is less than -0.25. With LPTRGSGPHKRAEGGSGHNP the figure was less than -0.25. With TAQVPRCVGAEPRARLELEG the figure was less than -0.25; with ISHLVW, less than -0.25; with WWDYLSR, less than -0.25.

For IYSIMNWNAG, the growth estimate was less than -0.25. As to LVWVCGSFQE, the growth estimate is less than -0.25. With YRPPKYLR the figure was less than -0.25; with APQSVDY, less than -0.25.

As for LTRTVKKHLPFIAGPERDVA, the growth estimate is less than -0.25. With PQPRGYLRFGGPISNVRVLC the figure was less than -0.25; with GLASGRNVLGYLG, less than -0.25. With ASNAVLVLHGRGVCSQSQQT the figure was less than -0.25; with AADEWVPVS, less than -0.25.

As to NEAVNGVLSYIMAGDSTLST, the growth estimate was less than -0.25.

Take NCHKIRHRGINMHRAGQVV: the growth estimate is less than -0.25. With SGGTFNSGTSRP the figure was less than -0.25; with KVKDGSSAEKVNYWVANLPP, less than -0.25; with AYCLRLHMAGLGRVRFQPPL, less than -0.25. With PNPRHSANKRHDLTSAA the figure was less than -0.25; with GNIMRVTAYG, less than -0.25. With VSCGYGRNVHKGIAPTDSSA the figure was -0.246; with ITGSRQSSSSSLK, less than -0.25.

For LYGDRTGAESRLTRGTRHGR, the growth estimate was less than -0.25. Consider LGKAGHGLYFAGGEPSKCDT, for which the growth estimate is less than -0.25. On to CIAATTICLGTMAEPAHVKN, for which the growth estimate was less than -0.25. On to RNTHFLRSARSRFVVTSNPL, for which the growth estimate is less than -0.25. With IVLWPRGISRTCR the figure was -0.248; with SRVKASVTCIRWHYGHVLSA, less than -0.25; with GTGKCSQQVLFLAARGNSGE, less than -0.25.

In the case of AGYRPMFHMS, the growth estimate is less than -0.25. With LKDAVDGASVPQGSGTAVGV the figure was less than -0.25; with SSDWREAGCSISSLSGSCQI, -0.235; with IMVNEIFTHAPFVELSECSP, less than -0.25.

On to RLGCDRAPATGMDCKWLIDC, for which the growth estimate is less than -0.25.

Take ITSGAKSGFAGLAYSYSSKP: the growth estimate was less than -0.25. Take PACDCSVNKHYLLMGGWLLR: the growth estimate was -0.246. With SRKLRGFG the figure was less than -0.25. With HLVQGHRSHDRSVWLWLRSS the figure was less than -0.25. With CSRRLCYHVTTPTHRNHTAI the figure was less than -0.25. Turning to GCHSEVAGLKNLNTMARTPS, the growth estimate was less than -0.25. With VLSAIIHIK the figure was less than -0.25. As to NRI, the growth estimate is less than -0.25. As to HNSHKNGGLQGRSMGHS, the growth estimate is -0.237. With SKDVDEPNKRTWYGRKSPVV the figure was less than -0.25. With PIKFRHPAASRLWIHKSAAS the figure was less than -0.25; with RSSHGLLRDTIRN, -0.25. With FTRRRAACRCPRPFVTIIAR the figure was less than -0.25; with SRDGSTSCIIATPNARRSRA, less than -0.25; with QTAPR, less than -0.25.

Regarding AGSLAAGQSALGFGVYGEGS, the growth estimate is less than -0.25. As for LRLERWSCALAMANAPRTGS, the growth estimate was less than -0.25. For the substance SRCGVVSDPEEEHTDRPSTS, the growth estimate was less than -0.25. With RSHYTLDGLK the figure was less than -0.25. As to YARVS, the growth estimate is less than -0.25.

For the substance RISRCC, the growth estimate is less than -0.25. With DRISGNFKKGFQRAVEVRSQ the figure was less than -0.25; with PKRTSDSLESGVQ, less than -0.25; with GRNGRHS, less than -0.25.

With SDSAARCQNMTLSWRPSGSA, the growth estimate is less than -0.25.

Regarding AITLETAGRVVEVLS, the growth estimate was less than -0.25. With EGSRLAFGAEAGGNVAEQRM the figure was less than -0.25; with SDADQADSCSGTLHVDTPSL, less than -0.25; with NVGVSVFGCN, less than -0.25. With RDLW the figure was less than -0.25; with HGEPDVYQLPANSVLTS, less than -0.25; with RIKDGKVRACAGVDTHV, less than -0.25. As to YPYVLAEDVAQNVLCCQQAH, the growth estimate was less than -0.25. VSDSSAHRLEHCDILKR: the growth estimate was less than -0.25. With LDEMLRRQHAYVCVIASWFK the figure was less than -0.25; with YWERMSHRPLKKNRGARSVP, less than -0.25. With LDTAAWSLTTPNAPNG the figure was less than -0.25; with AEPCRADAKFSDKPTTEIRQ, -0.187. Take GFTMGYRGKRQLVGKQCGS: the growth estimate was less than -0.25. With EEDRFTLNVAQMDANPSVWR the figure was less than -0.25; with RVSTLVGRKS, less than -0.25.

Regarding ITPSLRGRGASL, the growth estimate was less than -0.25. With KVILVAFCNERCVRSIHLYR the figure was -0.216. QYACLSLTVRLSATTLGGKS: the growth estimate was less than -0.25. With VERPG the figure was less than -0.25; with LPTRGIYSGVKTSFRLRPFL, less than -0.25; with TGCNRREIRCKGTVSSCHVE, less than -0.25.

Consider IAWPAEVAHALMSVHALSGV, for which the growth estimate is less than -0.25.

RKRTVSARPAPFQKFDGLME: the growth estimate was less than -0.25.

Regarding QGCLFKRGWGANSYARADTS, the growth estimate was less than -0.25. With IWTRTPSL the figure was less than -0.25; with RTGIARTAMRAGVRRRRHTG, less than -0.25.

With RCHATEQIQRSS, the growth estimate was less than -0.25. With VLDYPETLSPSPITFFAAES the figure was -0.25. With ILYMVWRILSLTIVRNWLRL the figure was less than -0.25; with SILINGTDFDPSTSSHGNTA, less than -0.25. Take VGAFPRQHCVSCLGSVQSCV: the growth estimate is less than -0.25. With PVNPLGTGPLN the figure was less than -0.25. With SWAMYTTNSTPKAVVTMSTS the figure was less than -0.25; with RCMRGMGVPAPRNACS, less than -0.25; with TLYGCAALGSGDLSVGHPML, less than -0.25.

As for GILAWGTPV, the growth estimate is less than -0.25. With RSVVLQ the figure was less than -0.25; with EGS, less than -0.25. With RSTRTDKLARASFRILLTLW the figure was less than -0.25; with RIAASEWDLKRCLKSAPASI, less than -0.25; with HIFRSRKWCPSNSQEA, less than -0.25. With GQVSDWR the figure was less than -0.25. As to LREGPAD, the growth estimate was less than -0.25. As for DEGAPDPALR, the growth estimate is less than -0.25. Take AAVGVTSFERITFTVGPGRL: the growth estimate is less than -0.25.

With VSGLGLCANTREVGGSARYE, the growth estimate was less than -0.25. With GVRCLEI the figure was less than -0.25. With YPPLGFFGGRSVLQQTRQLP the figure was less than -0.25. For the substance DFGGQ, the growth estimate was less than -0.25. With PLDAKPTDDDCSIEIGSPGD the figure was less than -0.25; with RNCVVG, less than -0.25; with RCIRDAVGPLESSKSHRAAC, less than -0.25.

Consider YRPRSYHPKDIFL, for which the growth estimate was less than -0.25. With CAIDIIVSGAATFDI the figure was less than -0.25. With ISRRW the figure was less than -0.25. Turning to DRVRVVTW, the growth estimate is less than -0.25.

In the case of MCLVEN, the growth estimate is less than -0.25. As to VKGECGPA, the growth estimate was -0.246.

For the substance INLRRASDTRYRIP, the growth estimate is less than -0.25. With WTCK, the growth estimate is less than -0.25. With CGCAHERCATTEGVANQRIV the figure was less than -0.25.

WGSILRRSY: the growth estimate was less than -0.25. With TVKGSFVE the figure was less than -0.25; with SRRRLSVLIVFIRMTNAVR, less than -0.25; with DRTPMTNIRQSNWAFIEGTF, less than -0.25. With LIFQNGYA the figure was less than -0.25; with RTDWECTQGHQRVPEGQRPR, less than -0.25; with IGFLGENIPSVDPIGEENRD, less than -0.25. Consider GCTVGPGAPHRRAATNGRRQ, for which the growth estimate was less than -0.25. In the case of WAGNLLSGKPDSWNSVGG, the growth estimate is less than -0.25. For the substance SAFWDVRLGTFWCRKD, the growth estimate was less than -0.25. With ARAMIQ the figure was less than -0.25. With TALRLDRIRLGTRL the figure was less than -0.25; with VALAQGARTGEWTTGVTSRC, less than -0.25; with KSTTSVSQLSCVRAKVIAPK, less than -0.25. With LEAH the figure was less than -0.25; with WTSNVRPRCLMAMQADCRFR, -0.239. Take GQVLAEE: the growth estimate is less than -0.25. With QAHRANVGCLLSKKRK the figure was less than -0.25.

In the case of AYYM, the growth estimate was less than -0.25. With FLSTE the figure was less than -0.25. With GISPISTPGVVSCTRDRSPS the figure was less than -0.25; with SALVCVNLDMRHKLASRTFR, -0.246.

(Values after the supplement of paper PMC5949888.)
